According to patent US11344534B2, “Cholinergic agonism for the treatment of pancreatic cancer” (priority 2017, dated 2022):

Tested on: Organoid cultures derived from LSL-K-Ras^G12D pancreata not treated by an Adeno-Cre virus
Assay type: cell-based
Details: no Adeno-Cre virus (Kras not activated)

CN1[C@@H]2C[C@@H](OC(=O)[C@H](CO)c3ccccc3)C[C@H]1[C@@H]1O[C@@H]12 [scopolamine]
sphere forming capacity / growth of WT spheres: significantly prevents
